These are yes or no findings as the source states them, for the method shown. In cells and extracts the contact can be indirect. Some entries that bind do so weakly or less than the wild type. Tags and fused reporters may be left off the sequences shown.
Molecular target: T1, HA-SRFR1 (SUPPRESSOR OF rps4-RLD1, HA-tagged, genomic clone) (Arabidopsis thaliana) (UniProt F4JS25)
T1 sequence: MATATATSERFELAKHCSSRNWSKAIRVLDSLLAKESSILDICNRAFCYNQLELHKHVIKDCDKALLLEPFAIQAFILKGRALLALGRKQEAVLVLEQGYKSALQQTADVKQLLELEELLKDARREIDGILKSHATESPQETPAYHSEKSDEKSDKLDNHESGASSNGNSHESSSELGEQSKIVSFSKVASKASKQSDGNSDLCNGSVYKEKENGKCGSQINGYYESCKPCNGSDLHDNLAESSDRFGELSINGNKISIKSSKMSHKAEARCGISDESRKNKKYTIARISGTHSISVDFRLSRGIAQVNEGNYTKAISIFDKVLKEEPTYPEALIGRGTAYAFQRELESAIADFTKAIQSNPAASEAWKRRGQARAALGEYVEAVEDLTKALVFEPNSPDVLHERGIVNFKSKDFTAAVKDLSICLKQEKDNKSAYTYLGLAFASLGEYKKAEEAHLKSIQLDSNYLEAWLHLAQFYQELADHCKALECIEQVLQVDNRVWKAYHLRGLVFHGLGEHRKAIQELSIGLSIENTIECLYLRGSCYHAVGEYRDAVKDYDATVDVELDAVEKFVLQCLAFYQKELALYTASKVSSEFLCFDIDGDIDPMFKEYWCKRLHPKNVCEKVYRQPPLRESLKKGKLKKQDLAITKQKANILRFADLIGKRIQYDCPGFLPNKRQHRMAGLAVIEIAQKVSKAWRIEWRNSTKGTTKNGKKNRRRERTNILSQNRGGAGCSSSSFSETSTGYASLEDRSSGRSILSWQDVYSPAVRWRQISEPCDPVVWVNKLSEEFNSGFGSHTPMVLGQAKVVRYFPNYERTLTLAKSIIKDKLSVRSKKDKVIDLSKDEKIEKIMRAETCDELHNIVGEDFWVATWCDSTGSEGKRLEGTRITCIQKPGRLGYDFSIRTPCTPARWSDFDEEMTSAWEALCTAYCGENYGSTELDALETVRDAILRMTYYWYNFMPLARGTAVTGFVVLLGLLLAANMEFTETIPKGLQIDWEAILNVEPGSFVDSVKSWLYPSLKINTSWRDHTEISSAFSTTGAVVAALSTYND
Experiment: co-IP; microsomal fraction (100,000 x g pellet, resuspended in buffer H) of HA-SRFR1 transgenic N. benthamiana leaves 48 h after agroinfiltration of the Myc-tagged proteins; 1% Igepal CA-630; overnight with anti-HA or anti-Myc agarose beads; immunoblot

binding: binds
B1: Myc-RPS4 (genomic RPS4, Myc-tagged) (protein, UniProt Q9XGM3 1-1217)
chain: METSSISTVEDKPPQHQVFINFRGADLRRRFVSHLVTALKLNNINVFIDDYEDRGQPLDVLLKRIEESKIVLAIFSGNYTESVWCVRELEKIKDCTDEGTLVAIPIFYKLEPSTVRDLKGKFGDRFRSMAKGDERKKKWKEAFNLIPNIMGIIIDKKSVESEKVNEIVKAVKTALTGIPPEGSHNAVVGALGNSNAGTSSGDKKHETFGNEQRLKDLEEKLDRDKYKGTRIIGVVGMPGIGKTTLLKELYKTWQGKFSRHALIDQIRVKSKHLELDRLPQMLLGELSKLNHPHVDNLKDPYSQLHERKVLVVLDDVSKREQIDALREILDWIKEGKEGSRVVIATSDMSLTNGLVDDTYMVQNLNHRDSLQLFHYHAFIDDQANPQKKDFMKLSEGFVHYARGHPLALKVLGGELNKKSMDHWNSKMKKLAQSPSPNIVSVFQVSYDELTTAQKDAFLDIACFRSQDKDYVESLLASSDLGSAEAMSAVKSLTDKFLINTCDGRVEMHDLLYKFSREVDLKASNQDGSRQRRLWLHQHIIKGGIINVLQNKMKAANVRGIFLDLSEVEDETSLDRDHFINMGNLRYLKFYNSHCPQECKTNNKINIPDKLKLPLKEVRCLHWLKFPLETLPNDFNPINLVDLKLPYSEMEQLWEGDKDTPCLRWVDLNHSSKLCSLSGLSKAEKLQRLNLEGCTTLKAFPHDMKKMKMLAFLNLKGCTSLESLPEMNLISLKTLTLSGCSTFKEFPLISDNIETLYLDGTAISQLPMNMEKLQRLVVLNMKDCKMLEEIPGRVGELKALQELILSDCLNLKIFPEIDISFLNILLLDGTAIEVMPQLPSVQYLCLSRNAKISCLPVGISQLSQLKWLDLKYCTSLTSVPEFPPNLQCLDAHGCSSLKTVSKPLARIMPTEQNHSTFIFTNCENLEQAAKEEITSYAQRKCQLLSYARKRYNGGLVSESLFSTCFPGCEVPSWFCHETVGSELEVKLLPHWHDKKLAGIALCAVVSCLDPQDQVSRLSVTCTFKVKDEDKSWVAYTCPVGSWTRHGGGKDKIELDHVFIGYTSCPHTIKCHEEGNSDECNPTEASLKFTVTGGTSENGKYKVLKCGLSLVYAKDKDKNSALETKYDMLIGKSFQETSEGVDGRVKKTKGKYVMPVEKNFQETTEGVDGRVNKKKKTRMDNGRPKKKQRSGRDDNQTRMQVELQEGNINSVIMHTVKNF

— PMC2973837
